Experimental data as given in paper PMC12431657, “Discovery and mechanistic insights of dibenzoylmethane as a broad spectrum inhibitor of coronavirus” (PLOS Pathogens, 2025).
Structures can show the parent of a compound that is named as a salt. Where two headings read alike, the source gives them in different places. Out of some 3,300 compounds screened, about 95 (3%) showed an effect of 50% or more. The list shows a part of the results.

Tested on: HCoV-229E
Design: species or system Huh-7; HTS, protection from HCoV-229E induced cell death, luminescent cell viability (CellCounting-Lite 2.0), inhibition rate
Details: 24 h post infection, 1 h compound pre-incubation, 10 µM, inhibitor

| Structure (SMILES) | 229E Inhibition rate (229E Inhibition rate, 24 h) | 229E Inhibition rate |
| --- | --- | --- |
| OC1OC[C@@H](O)[C@@H](O)[C@@H]1O (stereo partly drawn) [D-arabinose] | 22.9% |  |
| O=C1C=CC[C@@H]2[C@H]3CCCN4CCC[C@@H](CN12)[C@@H]34 [Sophocarpine] | 19.6% |  |
| C[C@H](Cc1ccc(O)c(O)c1)[C@@H](C)Cc1ccc(O)c(O)c1 [Nordihydroguaiaretic acid] |  | 32.5% |
| Cc1c(=O)c(=O)c2c3c[nH]c4c(C)c(=O)c(=O)c(c5c[nH]c1c52)c43 [Melanin] |  | 10.8% |
| COc1ccc(-c2cc(=O)c3c(OC)cc(OC)cc3o2)cc1 [5,7,4'-Trimethoxyflavone] |  | 20.3% |
| C=C[C@H]1[C@H](O[C@@H]2O[C@H](CO)[C@@H](O)[C@H](O)[C@H]2O)OC=C(C(=O)OC)[C@H]1C[C@@H]1c2cc(O)c(O)cc2CCN1C(C)=O [Ipecoside] |  | 0% |
| C=C[C@H]1CN2CC[C@@]3(C(=O)Nc4ccccc43)[C@@H]2C[C@@H]1/C(=C\OC)C(=O)OC [Isocorynoxeine] |  | 41% |
| COc1cc([C@@H]2c3cc4c(cc3[C@@H]3OC[C@H]2[C@@H]3CO)OCO4)cc(OC)c1OC [Neoanhydropodophyllol] |  | 9.1% |
| CCCCCC(C)C(=O)O (stereo not shown) [2-Methylheptanoic acid] |  | 47.5% |
| CCC(=O)C(=O)O [2-Oxobutanoic acid] |  | 38.8% |
| S=C=NCc1ccccc1 [Benzyl isothiocyanate] |  | 15% |
| COc1cc(/C=C/C=O)ccc1O [Coniferaldehyde] |  | 38.5% |
| CCCCCCCC=O [Octanal] |  | 21.4% |
| CCCCCCC(O)C(=O)O (stereo not shown) [2-Hydroxyoctanoic acid] |  | 9.9% |
| COc1c2ccoc2c(OC[C@H]2OC2(C)C)c2oc(=O)ccc12 [Byakangelicol] |  | 17.1% |
| C=C[C@H]1[C@H](O[C@@H]2O[C@H](CO)[C@@H](O)[C@H](O)[C@H]2OC(=O)c2c(O)cc(O)cc2-c2cccc(O)c2)OC=C2C(=O)OCC[C@H]21 [Amarogentin] |  | 15.4% |
| Nc1ccn([C@@H]2O[C@H](COP(=O)(O)O)[C@@H](O)[C@H]2O)c(=O)n1 [Cytidine 5'-monophosphate] |  | 10.5% |

Three structures out of the list, ordered by count of non-hydrogen atoms, falling:

| Structure (SMILES) | 229E Inhibition rate (229E Inhibition rate, 24 h) | 229E Inhibition rate |
| --- | --- | --- |
| C=C[C@H]1[C@H](O[C@@H]2O[C@H](CO)[C@@H](O)[C@H](O)[C@H]2OC(=O)c2c(O)cc(O)cc2-c2cccc(O)c2)OC=C2C(=O)OCC[C@H]21 [Amarogentin] |  | 15.4% |
| Nc1ccn([C@@H]2O[C@H](COP(=O)(O)O)[C@@H](O)[C@H]2O)c(=O)n1 [Cytidine 5'-monophosphate] |  | 10.5% |
| OC1OC[C@@H](O)[C@@H](O)[C@@H]1O (stereo partly drawn) [D-arabinose] | 22.9% |  |

More structures follow:

| Structure (SMILES) | 229E Inhibition rate (229E Inhibition rate, 24 h) | 229E Inhibition rate |
| --- | --- | --- |
| C[C@H](CC[C@@H](O[C@@H]1O[C@H](CO[C@@H]2O[C@H](CO)[C@@H](O)[C@H](O)[C@H]2O)[C@@H](O)[C@H](O)[C@H]1O[C@@H]1O[C@H](CO)[C@@H](O)[C@H](O)[C@H]1O)C(C)(C)O)[C@H]1CC[C@@]2(C)[C@@H]3CC=C4[C@@H](CC[C@H](O[C@@H]5O[C@H](CO[C@@H]6O[C@H](CO)[C@@H](O)[C@H](O)[C@H]6O)[C@@H](O)[C@H](O)[C@H]5O)C4(C)C)[C@]3(C)C(=O)C[C@]12C [11-oxo-mogroside V] |  | 0% |
| CCCCCCCCCCCCCCCc1cc(O)cc(O)c1 [5-Pentadecylresorcinol] |  | 51.7% |
| O=C(O)CC(O)(CC(=O)O)C(=O)O [Sodium citrate (dihydrate)] | 0% |  |
| C/C1=C\CCC2=C[C@@H](OC2=O)c2c(C)coc2C1 [Linderalactone] |  | 9.2% |
| COc1ccc(CO)cc1OC [Veratryl alcohol] |  | 10.7% |
| CC1(C)COC(=O)[C@@H]1O [(R)-3-Hydroxy-4,4-dimethyldihydrofuran-2(3H)-one] |  | 19% |
| CC(C)=CCC[C@](C)(O[C@@H]1O[C@H](CO[C@@H]2OC[C@@H](O)[C@H](O)[C@H]2O)[C@@H](O)[C@H](O)[C@H]1O)[C@H]1CC[C@]2(C)[C@@H]1[C@H](O)C[C@@H]1[C@@]3(C)CC[C@H](O[C@@H]4O[C@H](CO)[C@@H](O)[C@H](O)[C@H]4O[C@@H]4O[C@H](CO)[C@@H](O)[C@H](O)[C@H]4O)C(C)(C)[C@@H]3CC[C@]12C [Ginsenoside Rb3] |  | 8% |
| CCCCC/C=C\C/C=C\CCCCCCCCO [Linoleyl alcohol] |  | 42.1% |
| CO[C@H]1C[C@H](O[C@H]2CC[C@@]3(C)[C@H](CC[C@@H]4[C@@H]3CC[C@]3(C)[C@@H](C5=CC(=O)OC5)[C@@H](OC(C)=O)C[C@]43O)C2)O[C@@H](C)[C@@H]1O [Oleandrin] |  | 9.1% |
| C=C(C)[C@@H]1CC[C@]2(C(=O)O[C@@H]3O[C@H](CO[C@@H]4O[C@H](CO)[C@@H](O[C@@H]5O[C@@H](C)[C@H](O)[C@@H](O)[C@H]5O)[C@H](O)[C@H]4O)[C@@H](O)[C@H](O)[C@H]3O)CC[C@]3(C)[C@H](CC[C@@H]4[C@@]5(C)CC[C@H](O[C@@H]6OC[C@H](O)[C@H](O)[C@H]6O[C@@H]6O[C@@H](C)[C@H](O)[C@@H](O)[C@H]6O)[C@@](C)(CO)[C@@H]5CC[C@]43C)[C@@H]12 [Pulchinenoside C] |  | 12.2% |
| O=C(/C=C/c1ccc(O)c(O)c1)O[C@@H](C(=O)O)[C@@H](O)C(=O)O [Caftaric acid] |  | 12.1% |
| COc1ccc(CCC(=O)c2c(O)cc(O[C@@H]3O[C@H](CO)[C@@H](O)[C@H](O)[C@H]3O[C@@H]3O[C@@H](C)[C@H](O)[C@@H](O)[C@H]3O)cc2O)cc1O [Neohesperidin dihydrochalcone] |  | 0% |
| CCCCC/C=C\C/C=C\C/C=C\C/C=C\CCCC(=O)O[C@H]1CC[C@@]2(C)C(=CC[C@H]3[C@@H]4CC[C@H]([C@H](C)CCCC(C)C)[C@@]4(C)CC[C@@H]32)C1 [Cholesteryl arachidonate] |  | 31.7% |
| CC(C)=CCC[C@@H](C)[C@@H]1CC[C@]2(C)C3=C(CC[C@@]12C)[C@@]1(C)CC[C@H](O)C(C)(C)[C@@H]1CC3 [Euphol] |  | 11.3% |
| CCCCCCCC(=O)c1c(O)cc(O)cc1CC(=O)OCC [Cytosporone B] |  | 42.9% |
| COC(=O)[C@H]1[C@H]2C[C@H]3c4[nH]c5ccccc5c4CCN3C[C@H]2CC[C@@H]1O [Rauwolscine (hydrochloride)] |  | 43.9% |
| CC(C)CCC[C@](C)(O)[C@H]1CC[C@H]2[C@@H]3CC=C4C[C@@H](O)CC[C@]4(C)[C@H]3CC[C@@]21C [20(S)-Hydroxycholesterol] |  | 57% |
